Test results reported in article PMC12473123, “Structure–Function Insights into Quinuclidine-3-One BisQACs: Synthesis, Modulation of Bacterial Resistance, Structure–Activity Relationship, and Biological Profiling” (Pharmaceuticals, 2025).

What was measured:
Format in all cases: cell-based
[1] = test system: Staphylococcus aureus ATCC 25923; experiment: Broth microdilution MIC; conditions: ATCC25923, read-out: Minimum Inhibitory Concentrations (MIC)
HEK293 cells = experiment: Cytotoxicity MTS assay; conditions: Homo sapiens, HEK293, 48 h, read-out: IC50 HEK293
Description: The cytotoxic potential of the selected drug candidates was evaluated using the CellTiter 96® AQueous One Solution Cell Proliferation Assay (Promega, Madison, WI, USA), following the manufacturer’s protocol. Human cell lines RPE1 and HEK293 were cultured at 37 °C in a humidified incubator with 5% CO2. Test compounds were dissolved in the appropriate growth medium and serially diluted across a range of concentrations in 96-well microtiter plates. Each well was seeded with 5000 cells and incubated for 48 h under standard culture conditions. Following this incubation period, 20 µL of MTS reagent was added to each well, and the plates were further incubated for 3 h to allow for color development. Absorbance was measured at 490 nm using a microplate reader to determine cell viability. Cytotoxicity was quantified as the half-maximal inhibitory concentration (IC50), defined as the concentration of compound that reduced cell viability by 50%. […] IC50 values were calculated using GraFit 6.0 software by plotting compound concentration against absorbance and fitting the data to a sigmoidal dose–response curve.

[2] = test system: Listeria monocytogenes ATCC 7644; experiment: Biofilm inhibition assay (crystal violet); conditions: ATCC7644, read-out: biofilm inhibition
Description: (§1) The ability of the candidate compounds to inhibit biofilm formation was evaluated by determining the minimum biofilm inhibitory concentration (MBIC) against the biofilm-forming strains Staphylococcus aureus ATCC 25923 and Listeria monocytogenes ATCC 7644. Overnight bacterial cultures were diluted in fresh, pre-warmed Mueller–Hinton broth (MHB) and incubated at 37 °C with constant shaking at 220 rpm. Once the cultures reached the exponential growth phase (OD600 = 0.3–0.5), they were standardized to a final concentration of 4 × 10^6 CFU/mL.
(§2) Aliquots (50 µL) of the standardized bacterial suspension were inoculated into 96-well microtiter plates containing the test compounds at final concentrations of 100, 50, 25, and 12.5 µg/mL. Plates were incubated at 37 °C for 24 to 48 h, depending on the bacterial strain. After incubation, the planktonic cells were carefully aspirated to preserve the integrity of the biofilm layer. Wells were gently rinsed with sterile ultrapure Milli-Q water and air-dried at 60 °C for 1 h to fix the biofilms. Biofilm formation was quantified using a crystal violet (CV) staining method. Wells were stained with 100 µL of 0.1% CV solution and incubated at room temperature for 1 h. Excess dye was removed by rinsing with sterile ultrapure Milli-Q water, followed by air-drying. Bound CV was solubilized with 100 µL of 70% ethanol and incubated for 30 min. The solubilized dye was transferred to a fresh plate, and absorbance was measured at 595 nm using a microplate reader (Bio-Tek EL808, Winooski, VT, USA). Absorbance values were directly proportional to biofilm biomass. Untreated bacterial cultures served as positive controls for biofilm formation, while sterile MHB served as the negative control.

RPE1 cells = experiment: Cytotoxicity MTS assay; conditions: Homo sapiens, RPE-1, 48 h, read-out: IC50 RPE1
Description: The cytotoxic potential of the selected drug candidates was evaluated using the CellTiter 96® AQueous One Solution Cell Proliferation Assay (Promega, Madison, WI, USA), following the manufacturer’s protocol. Human cell lines RPE1 and HEK293 were cultured at 37 °C in a humidified incubator with 5% CO2. Test compounds were dissolved in the appropriate growth medium and serially diluted across a range of concentrations in 96-well microtiter plates. Each well was seeded with 5000 cells and incubated for 48 h under standard culture conditions. Following this incubation period, 20 µL of MTS reagent was added to each well, and the plates were further incubated for 3 h to allow for color development. Absorbance was measured at 490 nm using a microplate reader to determine cell viability. Cytotoxicity was quantified as the half-maximal inhibitory concentration (IC50), defined as the concentration of compound that reduced cell viability by 50%. Commercial antiseptics cetylpyridinium chloride (CPC) and benzidodecyldimethylammonium bromide (BAB) were included as reference controls. IC50 values were calculated using GraFit 6.0 software by plotting compound concentration against absorbance and fitting the data to a sigmoidal dose–response curve.

[3] = test system: Staphylococcus aureus ATCC 25923; experiment: Biofilm inhibition assay (crystal violet)
Description: as §1
as §2, with “Plates” for “Aliquots (50 µL) of the standardized bacterial suspension were inoculated into 96-well microtiter plates containing the test compounds at final concentrations of 100, 50, 25, and 12.5 µg/mL. Plates”, “Bound CV was solubilized with 100 µL of 70% ethanol and incubated for 30 min.” left out, “Untreated bacterial cultures served as positive controls for biofilm formation, while sterile MHB served as the negative control.” left out

**Q.** For `CCCCCCCCCCCCCCCC[n+]1ccccc1` [CPC, cetylpyridinium chloride, reference compound], which MIC [1] is on record?
**A.** 4 µM

**Q.** What about the IC50 (HEK293 cells) of the same compound?
**A.** 800 nM

**Q.** And the inhibition at 12.5 µg/mL [2]?
**A.** 15%

**Q.** What about the inhibition at 25 µg/mL [2] of the same compound?
**A.** 19%

**Q.** What about the inhibition at 50 µg/mL [2] of the same compound?
**A.** 39%

**Q.** What about the inhibition at 100 µg/mL [2] of the same compound?
**A.** 45%

**Q.** What about the IC50 (RPE1 cells) of the same compound?
**A.** 3000 nM

**Q.** And the biofilm inhibition ([3]; S. aureus ATCC 25923, 12.5 µg/mL)?
**A.** > 30%

**Q.** What about the biofilm inhibition ([3]; S. aureus ATCC 25923, 25 µg/mL) of the same compound?
**A.** > 70%
